Source: article PMC9064986
Results are given in words; binding and its absence hold for the method and conditions named.

Amino acid sequences for entries named in this document (tags omitted). Residues count along the entry.
UniProt P37023, residues 22-118: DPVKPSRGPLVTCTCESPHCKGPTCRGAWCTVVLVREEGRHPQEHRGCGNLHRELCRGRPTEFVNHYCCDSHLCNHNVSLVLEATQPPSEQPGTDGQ

Target: T1, BMPRII extracellular domain (ECD), wild type (human) (UniProt Q13873)
T1 sequence: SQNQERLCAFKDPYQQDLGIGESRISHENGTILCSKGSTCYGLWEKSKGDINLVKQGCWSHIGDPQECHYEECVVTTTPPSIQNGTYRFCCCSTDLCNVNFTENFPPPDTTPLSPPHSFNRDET
Assay: crystal structure; ALK1:BMP10:BMPRII ternary complex, 3.60 Å, P21; ALK1 mixed with preformed BMP10:BMPRII at 1.2:1; both purified

- binding: no binding
Substance: ALK1 extracellular domain (ECD) (from UniProt P37023 22-118) (domain or fragment)
